The subject of data set [1] is 11 different microbial strains. Conditions: MTC value of the strain showing the highest sensitivity. The protocol: • dispense 150 μl of growth medium with indicator in each well • add a concentration gradient of the chemical to be tested to rows B-H in a MARA plate (i.e. an indicator device according to the present invention) • incubate for 16 h • read absorbance values; and • analyse with software.
Microbial responses to different chemicals was estimated by kinetic measurements of their growth using the Labsystem automated IEMS reader. A computer software that could monitor incubation temperatures, reading intervals, and automatically transfer OD data to a computer was developed. A growth medium containing 0.05% peptone, 0.011% bromothymol blue (BTB), 1% sodium chloride and 0.3% glucose was added to all wells. The glucose acts as a carbon source, and during growth the microorganism will break down the glucose and produce acids, that will turn the initially blue indicator to yellow. Each microplate contains 12 columns and 8 rows, and thus in each plate, 11 lyophilized microbial strains were used (one for each column, the 12th column was used as negative control). […] In order to avoid drying out of the plates during the incubation, one drop of sterile mineral oil was added to each well. The plate was then incubated in the IEMS spectrophotometer and the absorbance value from each well was measured every second hour during 48 h. […]

In data set [2] the test system is Photobacterium phosphoreum. To be noted: IC50-values, established assay; cited from earlier work.

Consider 1 compound from patent US8551921B2, “Method for determining the toxicity of an environmental or chemical sample” (priority 2000, dated 2013).

Take `CN1[C@@H]2CC[C@H]1CC(OC(=O)C(CO)c1ccccc1)C2.CN1[C@@H]2CC[C@H]1CC(OC(=O)C(CO)c1ccccc1)C2.O=S(=O)(O)O` (some centres unmarked) [Atropin Sulphate]: in data set [1], the “Inhibitory concentrations by method: MARA MTCmin” value amounted to 2.220 mg/mL. The “Inhibitory concentrations by method: Microtox” value in data set [2] was 3.094 mg/mL.
